Earlier results in US20260174880A1, “ELECTROPHILIC REACTIVE LINKERS FOR LABELING OF POLYPEPTIDES AND METHODS OF USE THEREOF” (The Brigham and Women's Hospital, Inc., priority 2023, published 2026).
At least one compound was matched to its structure with a doubt left.

Tested on: p-ERK 1/2

CC(=O)Nc1cccc(-n2c(=O)n(C3CC3)c(=O)c3c(Nc4ccc(I)cc4F)n(C)c(=O)c(C)c32)c1 [Trametinib]
sustained suppression of p-ERK 1/2: more than 24 hours
